Laboratory results as given in patent US20250011316A1 (Wake Forest University Health Sciences, priority 2022, published 2025).

Assay: general procedure: peptide synthesis; Rink Amide resin (0.7 mmol/g)
Conditions: whole synthesis; for final LC-MS purity: 215 nm; for final purity (method not given): ELSD
[1] = scale of the general procedure 5 gram resin, TFA salt converted to HCl salt
[2] = scale 0.25 mmol, TFA salt converted to HCl salt

Substance	final LC-MS purity [1] [%]	final purity (method not given) [1] [%]	isolated mass (scale 0.25 mmol, HCl salt) [mg]	isolated yield [2] [%]	further results
H-Cha-D-Arg-Cha-D-Arg-Cha-D-Arg-NH2 HCl salt					final LC-MS purity (scale 2.8 mmol, HCl salt): 92.5% (215 nm); final purity (method not given) (scale 2.8 mmol, HCl salt): 99.7% (ELSD); isolated mass (scale 2.8 mmol, HCl salt): 890 mg; isolated yield (scale 2.8 mmol, HCl salt): 29%
N3(CH2)5C(O)-Cha-D-Arg-Cha-D-Arg-Cha-D-Arg-NH2	78.0	99.6			isolated mass (scale 2.5 mmol, HCl salt): 580 mg; isolated yield (scale 2.5 mmol, TFA salt converted to HCl salt): 20%
N3(CH2CH2O)6CH2CH2C(O)-Cha-D-Arg-Cha-D-Arg-Cha-D-Arg-NH2 HCl salt	97.8	99.6	39	11	
N3(CH2CH2O)9CH2CH2C(O)-Cha-D-Arg-Cha-D-Arg-Cha-D-Arg-NH2 HCl salt	98.4	99.8	34	8.8	
Tert-butyl (R)-4-(4-((3-((3-methoxy-3-oxoprop-1-en-2-yl)amino)-3-oxoprop-1-en-2-yl)carbamoyl)thiazol-2-yl)-2-methylpiperazine-1-carboxylate			53		final LC-MS purity (scale of the general procedure 5 gram resin, HCl salt): 83.7%; isolated yield (scale 0.25 mmol, HCl salt): 17%
